Drawing on publication PMC5467237, this text covers binding for 3 molecules.

The chains behind the UniProt entries cited, without tags or fusion partners.
UniProt P99999: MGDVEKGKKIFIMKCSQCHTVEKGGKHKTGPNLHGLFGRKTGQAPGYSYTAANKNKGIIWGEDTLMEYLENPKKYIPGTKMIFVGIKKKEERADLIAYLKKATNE

Results are given in words; binding and its absence hold for the method and conditions named. Binding seen in cells or lysates may run through a third protein. Some binding calls cover weakened binding; strength is not graded here. For part of these data: Sequences can lack the tags named with a protein.

Test [1] deals with T1, endogenous MICS1 (precipitated with anti-MICS1) (UniProt Q9H3K2).
T1 sequence: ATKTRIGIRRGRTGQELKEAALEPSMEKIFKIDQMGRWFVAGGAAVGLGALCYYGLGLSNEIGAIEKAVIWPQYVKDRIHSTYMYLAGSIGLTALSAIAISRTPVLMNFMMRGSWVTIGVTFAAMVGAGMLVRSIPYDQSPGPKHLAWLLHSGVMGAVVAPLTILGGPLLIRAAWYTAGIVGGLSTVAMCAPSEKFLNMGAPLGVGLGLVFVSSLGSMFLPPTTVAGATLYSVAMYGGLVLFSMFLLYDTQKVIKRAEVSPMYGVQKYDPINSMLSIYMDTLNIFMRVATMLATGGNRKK
The test can be described thus: co-IP; endogenous proteins; lysates from cells treated with or without DSP, immunoprecipitated with anti-MICS1 or a control antibody; co-precipitates analysed in the presence or absence of DTT.

Another test has as its target Cyt c-FLAG (UniProt P99999). Put plainly: co-IP; transfected HEK293T cells treated with 0.5 mg/ml DSP (thiol-cleavable crosslinker) at 25 °C for 15-20 min, lysed in 50 mM Tris-HCl pH 8.0, 150 mM NaCl, 1% Triton X-100, 0.1% SDS; anti-FLAG or anti-Myc beads 3 h at 4 °C; western blot.

Turning to “endogenous Cyt c (from UniProt P99999 1-105)”, in test [1], the binding entry is “binds”.

B1: Tim23 (protein, UniProt O14925 1-209)
chain: MEGGGGSGNKTTGGLAGFFGAGGAGYSHADLAGVPLTGMNPLSPYLNVDPRYLVQDTDEFILPTGANKTRGRFELAFFTIGGCCMTGAAFGAMNGLRLGLKETQNMAWSKPRNVQILNMVTRQGALWANTLGSLALLYSAFGVIIEKTRGAEDDLNTVAAGTMTGMLYKCTGGLRGIARGGLTGLTLTSLYALYNNWEHMKGSLLQQSL
In the case of B1, the binding result with Cyt c-FLAG is given as “no binding”.

B2: MICS1-HA (protein, UniProt Q9H3K2 46-345)
chain: ATKTRIGIRRGRTGQELKEAALEPSMEKIFKIDQMGRWFVAGGAAVGLGALCYYGLGLSNEIGAIEKAVIWPQYVKDRIHSTYMYLAGSIGLTALSAIAISRTPVLMNFMMRGSWVTIGVTFAAMVGAGMLVRSIPYDQSPGPKHLAWLLHSGVMGAVVAPLTILGGPLLIRAAWYTAGIVGGLSTVAMCAPSEKFLNMGAPLGVGLGLVFVSSLGSMFLPPTTVAGATLYSVAMYGGLVLFSMFLLYDTQKVIKRAEVSPMYGVQKYDPINSMLSIYMDTLNIFMRVATMLATGGNRKK
Consider B2, for which the binding entry in the test with Cyt c-FLAG is listed as “binds”.
